The whole screen tested about 340,000 compounds, of which about 170 (0.05%) were called active. Inconclusive results, whose numbers are uncertain, are shown with a selection of clear calls. The call rests on the fitted dose curve; in most records, active means well fitted inhibition curve with a large enough effect in the signal ratio, with a control signal flat (not every such curve was filed as active); inconclusive means small, poorly fitted or top-dose-only effect, or effect the other way, or a change in a side signal; inactive means flat fitted curve, though single readings scatter; the % refers to the signal ratio. Where the call is inconclusive, the potency comes from a doubtful curve fit.
Assay: qHTS Assay to Find Inhibitors of Chronic Active B-Cell Receptor Signaling;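 on activity change, negative = inhibition: plate controls were basal doxycycline-induced cells for no effect and cells given 10 µM MG132 for full effect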
Details: ABC-DLBCL IkBa-CBG/CBR reporter, luminescence ratio (green luciferase fused to IkBa over red control in TMD8 lymphoma cells), 4 h; activity change, negative = inhibition: at 46.1 µM (top of the series) unless noted
Summary of the method: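 Doxycycline induced both beetle luciferases in TMD8 lymphoma cells; IKK-driven degradation limits the IkappaBalpha-fused green signal, while red luminescence normalises for cell number and nonspecific effects. Compounds tested up to 46 uM, 4 hrs.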
Potency means the concentration at half of the fitted maximal effect.

SMILES | activity change, negative = inhibition | Potency
N#Cc1c(NC(=O)CSc2nc(N)cc(=O)[nH]2)sc2c1CCCC2 | inconclusive: 8.66% | 
CC(Cc1cccs1)NC(=O)Nc1ccc(Cl)c(Cl)c1 (configuration not stated) | inconclusive: -3.36% | 
C=CCn1c(SCC(=O)NC2CCCC2)nc2c([nH]c3ccccc32)c1=O | inactive: -0.233% | 
COCCOC(=O)c1c(NC(=O)CN2CCOCC2)sc(C(N)=O)c1C | inconclusive: 0.935% | 
COc1cccc(C(=O)NC2CCCc3c2cnn3-c2ccc(C)c(C)c2)c1OC (configuration not stated) | inconclusive: -8.24% | 
CC(C)=CCC/C(C)=C/C=N/NC(=O)c1cccc([N+](=O)[O-])c1 | inconclusive: 15.1% | 
COc1ccccc1NCC(=O)N1CCN(S(=O)(=O)c2ccccc2)CC1 |  | inconclusive: 29.1 µM [rising, single point]
Cc1cccc(NC(=O)CCc2ccc(S(=O)(=O)NC3CCCCC3)cc2)c1 | inconclusive: -11.2% | 
O=C(c1ccco1)N1CCN(c2nc3ccccc3n3nnnc23)CC1 |  | inconclusive: 3.26 µM [falling, single point]
COc1cc(NC(=O)c2cc(-c3ccc4c(c3)OCO4)on2)cc(OC)c1OC | inactive: -14.5% | 
COc1ccc(N(CC(=O)NCCC2=CCCCC2)S(C)(=O)=O)cc1 | inactive: -12.7% | 
CCOC(=O)c1c(N2C(=O)CC(Sc3ccccc3C(=O)O)C2=O)sc(C)c1C (configuration not stated) | inconclusive: 11.9% | 
Clc1ccc(-c2nnc(-c3ccccc3)o2)cn1 | inconclusive: 17.2% | 
O=P(Cc1ccccc1)(c1ccccc1)c1ccccc1 | inconclusive: 2.32% | 
O=C(Nc1nnc(-c2ccccc2Cl)s1)c1ccccc1F | inconclusive: 0.0149% | 
COc1ccccc1/C=N/Nc1nccnc1Cl |  | inconclusive: 20.6 µM [falling, single point]
Cc1ccc(S(=O)(=O)CCSc2nccn2C)cc1 | inconclusive: 6.02% | 
CCN(C[C@H]1N[C@@](Cc2ccccc2)(C(=O)OC)[C@H]2C(=O)N(C)C(=O)[C@@H]12)C(=O)NC(C)C | inactive: -0.0476% | 
Cc1ccc2c(c1)sc1nc(=O)n(-c3ccc(Cl)cc3)c(=O)n12 | inconclusive: 9.5% | 
Cc1[nH]n(-c2ccccc2)c(=O)c1C1(C(F)(F)F)C(=O)N(c2ccc(F)cc2)C2=C1C(=O)CC(C)(C)C2 (configuration not stated) | inconclusive: 10.7% | 
Cc1ccc(-c2cc(N)n3nc(-c4ccc(C)cc4)cc3n2)cc1 |  | inconclusive: 2.82 µM [rising, full curve, poor fit]

Quoted at random: 2 records from the list.
SMILES | activity change, negative = inhibition | Potency
COc1ccc(N(CC(=O)NCCC2=CCCCC2)S(C)(=O)=O)cc1 | inactive: -12.7% | 
Cc1ccc2c(c1)sc1nc(=O)n(-c3ccc(Cl)cc3)c(=O)n12 | inconclusive: 9.5% | 

Later entries

SMILES | activity change, negative = inhibition | Potency
O=C(OCC(=O)N1CCCC1)c1ccc(Cl)c([N+](=O)[O-])c1 | inactive: 7.3% | 
Cc1cc(Cl)ccc1NC(=S)NCc1ccc(Cl)cc1 | inactive: -10.6% | 
O=C(NNC1=NC2(CCCC2)Cc2ccccc21)c1cccnc1 | inconclusive: 2.06% | 
CCOc1ccc(-c2csc(NC(=O)c3cccc(N4C(=O)CCC4=O)c3)n2)cc1 | inconclusive: -0.107% | 
CN(C(=O)c1ccccc1OCc1ccc(Cl)cc1)c1ccccc1 | inconclusive: 6.57% | 
O=C(NCc1cccs1)C1CCC(CNS(=O)(=O)c2cccc3nsnc23)CC1 (configuration not stated) | inconclusive: 24.7% | 
CCc1cc(=O)[nH]c(SCC(=O)N2CCOCC2)n1 | inconclusive: 4.13% | 
CCc1nnc(NC(=O)CSc2nc(C3CCCCC3)nc3ccccc23)s1 |  | inconclusive: 1.12 µM [falling, partial curve, poor fit]
O=C(CN1C(=O)c2ccccc2C1=O)NC1CCC(O)CC1 (configuration not stated) | inconclusive: 2.2% | 
CCOc1ccccc1NC(=O)CCc1nnc2ccc(N3CCC(C)CC3)nn12 | inconclusive: -15.2% | 
N=c1n(CCO)c2ccccc2n1Cc1ccccc1Cl | inconclusive: -23.7% | 
CC(=O)c1cc(C#N)c(SCC(=O)OC(C)(C)C)nc1C | inactive: 4.93% | 
COc1ccc(CCC(=O)Nc2c(C)n(C)n(-c3ccccc3)c2=O)cc1 | inconclusive: 10.7% | 
Cc1ccc(NC(=O)C2CC(=O)Nc3nc4ccccc4n32)c(C)c1 (configuration not stated) | inactive: 1.79% | 
COc1cccc(Nc2cc(N3CCOCC3)c3nonc3c2[N+](=O)[O-])c1 | inactive: -8.31% | 
COc1ccc2c(c1)-c1nc(NC(=O)c3ccco3)sc1CC2 | inconclusive: -5.41% | 
CCC1=NC(c2ccccc2OC)N(O)C1(C)C (configuration not stated) | inconclusive: 8.81% | 
COc1cc(NC(=O)c2ccc(Cl)cc2)c(OC)cc1NC(=O)CN1CCOCC1 | inconclusive: 3.51% | 
O=C(NC1CC1)C1=C[C@H](C2CCCCC2)C[C@H](OCCCCO)O1 | inconclusive: -0.441% | 
CCOC(=O)C1=CN(Cc2ccco2)S(=O)(=O)N(C)C1CC (configuration not stated) | inconclusive: -22.9% | 
CCc1nnc(NC(=O)Cn2nc(-c3ccc(OC)c(OC)c3)ccc2=O)s1 |  | inconclusive: 29.1 µM [falling, single point]

— PubChem BioAssay AID493014 (National Center for Advancing Translational Sciences (NCATS), 2011)
